{
  "source": "the supplement of paper PMC3656093",
  "note": "± gives the standard deviation of the averaged measurements. Shown are results outside the selection of lowest values, which stands elsewhere.",
  "data": [
    {"test_system": "BL2-NFkB-Luc", "assay": "CD40L-induced NF-kB luciferase activity, plate-corrected, relative to DMSO (0) and IKK inhibitor VII (-100) controls (% normalized activity); higher = more NF-kB reporter activity (less inhibition)", "conditions": "9.4 µM; stimulus: tCD40L 64 ng/ml; 4.5 h", "experimental": "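BL2 B cells with a stable NF-kB response-element luciferase reporter (BL2-NFkB-Luc), 384-well. Cells were pre-incubated with compound at 9.4 uM for 1 h at 37 C, then stimulated with 64 ng/ml trimerized CD40L for 4.5 h; luciferase was read with Steady-Glo. Signal was normalised per plate in Genedata (median DMSO neutral control = 0, median IKK inhibitor VII at 50 uM = -100) with Assay Median plate-pattern correction; duplicate plates.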", "values": [
      {"smiles": "CN(C)CCOC(c1ccccc1)c1ccccc1.Cn1c(=O)c2[nH]c(Cl)nc2n(C(=O)O)c1=O", "CD40L-induced NF-kB luciferase activity": "-0.699 ± 2.5"}
    ]}
  ]
}
